For orientation: Ki means the equilibrium dissociation constant of an inhibitor or competing ligand from its target. A low value points to tighter binding.

Protein sequences, listed by entry. Tags and fused reporters are not part of them. Residues count along the entry.
UniProt P00743, 234-492 limits assumed: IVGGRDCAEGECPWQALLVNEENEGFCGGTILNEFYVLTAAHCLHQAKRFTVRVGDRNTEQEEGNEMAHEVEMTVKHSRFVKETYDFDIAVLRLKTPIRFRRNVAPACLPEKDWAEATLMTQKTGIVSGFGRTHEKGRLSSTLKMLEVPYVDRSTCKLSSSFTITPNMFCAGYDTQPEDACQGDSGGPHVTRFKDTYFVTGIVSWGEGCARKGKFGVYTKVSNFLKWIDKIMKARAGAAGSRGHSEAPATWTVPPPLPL
UniProt P00743, 41-180 partner limits assumed: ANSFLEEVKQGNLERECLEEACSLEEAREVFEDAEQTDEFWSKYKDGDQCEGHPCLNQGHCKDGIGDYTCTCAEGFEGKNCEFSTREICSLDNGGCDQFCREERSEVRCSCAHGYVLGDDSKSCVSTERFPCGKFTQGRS

The values that follow come from patent US20050119190A1, “Inhibitors of the blood-clotting factor xa, production thereof and use of the same” (priority 2002, published 2005).

In this assay the target is F Xa (bovine) (Bos taurus, UniProt P00743). In words: Inhibition of F Xa, Ki by the method of Dixon, chromogenic substrate Moc-D-Nle-Gly-Arg-pNA. As to conditions: Example 4; inhibition of factor Xa by inhibitors of formula I.

Molecules are shown by their SMILES. Structures were worked out from names or drawings and are uncertain.

`COC(=O)c1cccc(CS(=O)(=O)N[C@H](COC(C)(C)C)C(=O)NCC(=O)NCc2ccc(C(=N)N)cc2)c1` displayed a Ki of 180 nM.
